No constants are given. Whether binding was seen depends on the method and setting. Binding seen in cells or lysates may run through a third protein. Some results given as binding are weak or reduced against the parent protein; the word gives no strength.
Target: T1, keratin 18 (K18) (human (endogenous in HCT116)) (UniProt P05783)
T1 sequence: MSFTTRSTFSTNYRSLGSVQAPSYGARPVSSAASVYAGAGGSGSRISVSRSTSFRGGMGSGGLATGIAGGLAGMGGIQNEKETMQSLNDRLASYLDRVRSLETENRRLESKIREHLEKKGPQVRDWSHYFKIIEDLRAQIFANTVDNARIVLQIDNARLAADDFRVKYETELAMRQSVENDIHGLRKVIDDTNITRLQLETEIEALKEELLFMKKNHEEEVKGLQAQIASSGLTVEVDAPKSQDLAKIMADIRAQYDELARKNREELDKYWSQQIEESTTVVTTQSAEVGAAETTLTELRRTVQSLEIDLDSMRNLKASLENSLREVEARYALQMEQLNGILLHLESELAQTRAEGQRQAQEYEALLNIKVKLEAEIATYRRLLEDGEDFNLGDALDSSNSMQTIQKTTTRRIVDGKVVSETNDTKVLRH
Assay: co-IP; HCT116 cells lysed in EBC buffer (50 mM Tris HCl pH 8.0, 125 mM NaCl, 0.5% NP40); lysates immunoprecipitated with anti-K18 antibody or control IgG; washed 3 times with NET-N buffer; Western blots for PKP3 and K18

- binding: binds
B1: plakophilin3 (PKP3) (protein, UniProt Q9Y446 1-797)
chain: MQDGNFLLSALQPEAGVCSLALPSDLQLDRRGAEGPEAERLRAARVQEQVRARLLQLGQQPRHNGAAEPEPEAETARGTSRGQYHTLQAGFSSRSQGLSGDKTSGFRPIAKPAYSPASWSSRSAVDLSCSRRLSSAHNGGSAFGAAGYGGAQPTPPMPTRPVSFHERGGVGSRADYDTLSLRSLRLGPGGLDDRYSLVSEQLEPAATSTYRAFAYERQASSSSSRAGGLDWPEATEVSPSRTIRAPAVRTLQRFQSSHRSRGVGGAVPGAVLEPVARAPSVRSLSLSLADSGHLPDVHGFNSYGSHRTLQRLSSGFDDIDLPSAVKYLMASDPNLQVLGAAYIQHKCYSDAAAKKQARSLQAVPRLVKLFNHANQEVQRHATGAMRNLIYDNADNKLALVEENGIFELLRTLREQDDELRKNVTGILWNLSSSDHLKDRLARDTLEQLTDLVLSPLSGAGGPPLIQQNASEAEIFYNATGFLRNLSSASQATRQKMRECHGLVDALVTSINHALDAGKCEDKSVENAVCVLRNLSYRLYDEMPPSALQRLEGRGRRDLAGAPPGEVVGCFTPQSRRLRELPLAADALTFAEVSKDPKGLEWLWSPQIVGLYNRLLQRCELNRHTTEAAAGALQNITAGDRRWAGVLSRLALEQERILNPLLDRVRTADHHQLRSLTGLIRNLSRNARNKDEMSTKVVSHLIEKLPGSVGEKSPPAEVLVNIIAVLNNLVVASPIAARDLLYFDGLRKLIFIKKKRDSPDSEKSSRAASSLLANLWQYNKLHRDFRAKGYRKEDFLGP

Source: paper PMC3368841
